No constants are given. Whether binding was seen depends on the method and setting. Binding seen in cells or lysates may run through a third protein. These calls come from enrichment with a bait or labelling near it, and not all partners need be listed. For part of these data: No binding means not detected with the bait.
T1: VosA::cTAP (Aspergillus nidulans) (UniProt Q5BBX1)
T1 sequence: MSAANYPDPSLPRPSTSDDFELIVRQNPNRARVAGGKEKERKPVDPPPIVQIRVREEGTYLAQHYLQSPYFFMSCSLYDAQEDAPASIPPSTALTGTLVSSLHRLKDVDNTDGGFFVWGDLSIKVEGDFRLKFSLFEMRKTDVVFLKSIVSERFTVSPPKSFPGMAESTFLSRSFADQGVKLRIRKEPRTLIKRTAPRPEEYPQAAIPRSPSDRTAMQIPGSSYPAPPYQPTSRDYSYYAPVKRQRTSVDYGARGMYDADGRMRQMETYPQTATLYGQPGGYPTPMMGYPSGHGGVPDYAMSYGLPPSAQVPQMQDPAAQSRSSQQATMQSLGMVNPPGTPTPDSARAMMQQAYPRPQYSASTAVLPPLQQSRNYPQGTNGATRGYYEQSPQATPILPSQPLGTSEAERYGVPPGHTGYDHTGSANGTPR

Sequences of proteins named here, by UniProt entry; tags and fusion partners are left off. A change or cut given only in a name is not applied to a line headed by its entry.
UniProt C8VTS4: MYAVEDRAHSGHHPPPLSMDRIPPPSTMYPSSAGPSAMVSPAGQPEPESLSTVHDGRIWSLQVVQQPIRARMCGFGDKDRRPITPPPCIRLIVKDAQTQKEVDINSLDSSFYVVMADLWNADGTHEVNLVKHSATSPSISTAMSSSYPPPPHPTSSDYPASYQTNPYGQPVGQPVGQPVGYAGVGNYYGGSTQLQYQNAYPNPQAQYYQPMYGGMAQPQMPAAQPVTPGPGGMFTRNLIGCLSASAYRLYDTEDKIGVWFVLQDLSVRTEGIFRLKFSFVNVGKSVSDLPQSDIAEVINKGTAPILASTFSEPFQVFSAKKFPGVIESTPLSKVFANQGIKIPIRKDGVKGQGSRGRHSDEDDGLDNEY
UniProt C8VQG9: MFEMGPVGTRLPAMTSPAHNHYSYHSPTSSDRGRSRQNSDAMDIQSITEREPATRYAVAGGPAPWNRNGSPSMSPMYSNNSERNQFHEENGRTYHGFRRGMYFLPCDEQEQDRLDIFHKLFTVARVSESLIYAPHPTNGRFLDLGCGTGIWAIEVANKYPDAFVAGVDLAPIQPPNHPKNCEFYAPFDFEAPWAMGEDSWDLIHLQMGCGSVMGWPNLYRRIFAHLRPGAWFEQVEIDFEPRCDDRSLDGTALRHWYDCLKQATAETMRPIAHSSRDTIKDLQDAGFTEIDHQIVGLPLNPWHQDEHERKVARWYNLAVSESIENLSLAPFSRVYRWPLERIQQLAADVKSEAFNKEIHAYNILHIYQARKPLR
UniProt G5EB89: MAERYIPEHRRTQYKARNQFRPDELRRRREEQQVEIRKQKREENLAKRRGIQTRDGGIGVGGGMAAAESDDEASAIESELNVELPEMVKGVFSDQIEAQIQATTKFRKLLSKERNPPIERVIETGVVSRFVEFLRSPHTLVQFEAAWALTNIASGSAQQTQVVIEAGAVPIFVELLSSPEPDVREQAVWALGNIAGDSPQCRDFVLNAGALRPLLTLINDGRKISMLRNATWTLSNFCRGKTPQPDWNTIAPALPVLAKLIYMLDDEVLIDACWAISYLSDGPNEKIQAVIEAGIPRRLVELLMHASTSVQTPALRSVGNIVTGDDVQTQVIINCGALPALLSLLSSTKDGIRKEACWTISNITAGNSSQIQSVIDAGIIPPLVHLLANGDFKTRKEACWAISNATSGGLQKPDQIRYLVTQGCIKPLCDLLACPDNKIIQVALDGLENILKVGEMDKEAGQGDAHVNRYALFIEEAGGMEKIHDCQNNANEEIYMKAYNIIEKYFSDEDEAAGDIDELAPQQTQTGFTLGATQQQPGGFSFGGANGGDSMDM

T2: VeA::cTAP (Aspergillus nidulans) (UniProt C8VTV4)
T2 sequence: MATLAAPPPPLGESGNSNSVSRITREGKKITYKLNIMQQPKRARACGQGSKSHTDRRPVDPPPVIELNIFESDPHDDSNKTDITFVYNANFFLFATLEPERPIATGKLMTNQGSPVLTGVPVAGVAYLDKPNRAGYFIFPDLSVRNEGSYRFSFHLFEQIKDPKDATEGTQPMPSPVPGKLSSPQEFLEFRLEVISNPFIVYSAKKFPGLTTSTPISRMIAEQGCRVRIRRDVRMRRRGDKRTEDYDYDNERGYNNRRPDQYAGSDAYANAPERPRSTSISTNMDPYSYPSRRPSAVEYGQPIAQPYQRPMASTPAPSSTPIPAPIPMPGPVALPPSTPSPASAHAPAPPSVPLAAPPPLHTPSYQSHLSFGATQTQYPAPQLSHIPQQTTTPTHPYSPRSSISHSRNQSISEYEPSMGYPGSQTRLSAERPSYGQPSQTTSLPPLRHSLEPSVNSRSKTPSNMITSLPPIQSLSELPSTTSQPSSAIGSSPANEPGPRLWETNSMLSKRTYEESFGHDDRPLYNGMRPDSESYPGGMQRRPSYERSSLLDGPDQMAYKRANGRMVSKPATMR

B1: VeA (velvet A) (protein, UniProt C8VTV4 1-573)
chain: T2 sequence

Tests used:
Assay in all cases: affinity purification with mass spectrometry; tandem affinity purification (TAP) of the cTAP-tagged bait from A. nidulans protein crude extracts, cultures 12 h after induction on solid medium in the light or in the dark; wild type and laeAΔ strains; bands identified by LC-MS/MS
[1] = target: T1, VosA::cTAP (Aspergillus nidulans)
[2] = target: T2, VeA::cTAP (Aspergillus nidulans)
[3] = target: VelB::cTAP (Aspergillus nidulans) (UniProt C8VTS4)

Molecule	binding [1]	binding [2]	binding [3]
LaeA (from UniProt C8VQG9 1-374)	no binding	–	–
VelB (velvet-like B) (from UniProt C8VTS4 1-369)	–	binds	–
α-importin KapA (from UniProt G5EB89)	no binding	binds	binds
B1	–	–	binds
